## Library screen at single concentrations

Sequences of proteins named here, by UniProt entry; tags and fusion partners are left off. Residues count along the entry.
UniProt P9WNZ1, whole entry: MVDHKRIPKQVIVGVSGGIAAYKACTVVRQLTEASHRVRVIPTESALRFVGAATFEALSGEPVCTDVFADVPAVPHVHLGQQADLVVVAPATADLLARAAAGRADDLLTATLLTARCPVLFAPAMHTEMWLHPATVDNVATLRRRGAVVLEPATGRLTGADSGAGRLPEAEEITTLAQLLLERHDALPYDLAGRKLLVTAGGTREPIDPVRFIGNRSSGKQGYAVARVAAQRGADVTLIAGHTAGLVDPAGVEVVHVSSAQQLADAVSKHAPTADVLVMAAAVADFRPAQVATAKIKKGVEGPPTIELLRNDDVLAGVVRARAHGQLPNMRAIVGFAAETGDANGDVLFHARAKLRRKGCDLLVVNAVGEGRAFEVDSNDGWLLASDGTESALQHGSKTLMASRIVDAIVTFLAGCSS
UniProt P9WFT3, whole entry: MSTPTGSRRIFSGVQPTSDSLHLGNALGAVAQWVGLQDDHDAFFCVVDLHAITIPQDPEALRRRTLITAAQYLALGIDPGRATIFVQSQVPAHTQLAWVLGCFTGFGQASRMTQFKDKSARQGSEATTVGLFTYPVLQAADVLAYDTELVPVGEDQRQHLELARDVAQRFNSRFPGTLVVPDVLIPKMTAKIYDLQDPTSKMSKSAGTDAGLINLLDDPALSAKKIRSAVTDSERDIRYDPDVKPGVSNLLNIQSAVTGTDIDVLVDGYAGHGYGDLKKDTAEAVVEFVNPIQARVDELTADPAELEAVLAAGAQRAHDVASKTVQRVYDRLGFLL
UniProt P9WPC5, whole entry: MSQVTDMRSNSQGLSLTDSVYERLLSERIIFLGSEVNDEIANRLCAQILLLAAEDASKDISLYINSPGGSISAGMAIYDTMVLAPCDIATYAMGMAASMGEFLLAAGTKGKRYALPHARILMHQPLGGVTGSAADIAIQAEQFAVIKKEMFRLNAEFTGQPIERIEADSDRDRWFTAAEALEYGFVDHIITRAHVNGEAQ
UniProt P9WPC3, whole entry partner: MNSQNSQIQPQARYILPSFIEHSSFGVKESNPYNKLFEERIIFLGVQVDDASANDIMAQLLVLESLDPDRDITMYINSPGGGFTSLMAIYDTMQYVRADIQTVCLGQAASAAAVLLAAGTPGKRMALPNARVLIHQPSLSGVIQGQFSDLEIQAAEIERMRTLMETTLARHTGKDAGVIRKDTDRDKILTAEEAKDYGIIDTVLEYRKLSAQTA
UniProt A4I591, 1-473: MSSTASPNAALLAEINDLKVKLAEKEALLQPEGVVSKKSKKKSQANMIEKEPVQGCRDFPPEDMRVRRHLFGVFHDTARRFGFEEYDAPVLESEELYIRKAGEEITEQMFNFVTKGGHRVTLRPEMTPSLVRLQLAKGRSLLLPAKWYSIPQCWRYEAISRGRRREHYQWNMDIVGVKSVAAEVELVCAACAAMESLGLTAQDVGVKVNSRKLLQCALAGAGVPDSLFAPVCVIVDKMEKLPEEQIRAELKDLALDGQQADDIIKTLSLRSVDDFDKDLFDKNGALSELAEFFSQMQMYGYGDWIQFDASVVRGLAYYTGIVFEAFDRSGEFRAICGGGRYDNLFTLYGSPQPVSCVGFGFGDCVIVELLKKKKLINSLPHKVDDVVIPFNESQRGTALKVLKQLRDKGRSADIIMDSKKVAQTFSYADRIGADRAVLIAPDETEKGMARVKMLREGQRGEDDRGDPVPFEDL
UniProt Q4DA54, 1-478: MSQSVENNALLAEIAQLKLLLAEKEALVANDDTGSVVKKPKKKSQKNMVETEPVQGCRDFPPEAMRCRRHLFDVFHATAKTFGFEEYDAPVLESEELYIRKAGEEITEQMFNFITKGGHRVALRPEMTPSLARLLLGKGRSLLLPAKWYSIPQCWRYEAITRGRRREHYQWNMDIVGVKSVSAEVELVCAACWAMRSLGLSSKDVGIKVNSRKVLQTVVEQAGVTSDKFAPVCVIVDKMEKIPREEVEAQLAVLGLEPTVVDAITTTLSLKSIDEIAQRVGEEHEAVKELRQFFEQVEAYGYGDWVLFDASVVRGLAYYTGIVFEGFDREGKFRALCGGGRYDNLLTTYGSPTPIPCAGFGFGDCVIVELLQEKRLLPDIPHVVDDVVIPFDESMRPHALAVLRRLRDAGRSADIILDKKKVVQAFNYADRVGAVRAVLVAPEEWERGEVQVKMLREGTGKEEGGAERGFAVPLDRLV

CoaBC: 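Enzyme assay of CoaBC with a phosphate dye (Biomol Green) read at 650 nm. Target: Coenzyme A biosynthesis protein CoaBC, Mycobacterium tuberculosis (UniProt P9WNZ1). Tested at 30 µM. Higher reads as stronger inhibition, judged from the few compounds that gave an IC50. Most strong results did not repeat in a second test. Size under these conditions: about 67,000 compounds, about 40 of them at 50% or above in at least one test.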
MtTrpRS: 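Enzyme assay of tryptophanyl-tRNA synthetase; the read-out is not stated. Target: Tryptophan-tRNA ligase, Mycobacterium tuberculosis (UniProt P9WFT3). Concentration: 10 µM. Direction is not recorded; retested compounds ran higher, which suggests that high means inhibition. Of about 65,000 compounds tested this way, about 64 (0.098%) reached 50% or more in at least one test.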
ClpP1P2: 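ClpP1P2, Mycobacterium tuberculosis (UniProt P9WPC5 and UniProt P9WPC3). Protease assay of ClpP1P2, read by the AMC dye that it sets free. Concentration: 50 µM. Higher reads as stronger inhibition, judged from the few compounds that gave an IC50. Most other retested compounds had strongly negative values. Of about 69,000 compounds tested this way, about 10 (0.015%) reached 50% or more in at least one test.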
LiHisRS: 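Enzyme assay of histidyl-tRNA synthetase; the read-out is not stated. Target: Histidine-tRNA ligase, Leishmania infantum (UniProt A4I591). Concentration: 30 µM. Higher reads as stronger inhibition (inferred: compounds with an IC50 in retests scored well above the rest). The assay is labelled LdHisRS but filed under L. infantum. Size under these conditions: about 69,000 compounds, about 410 of them at 50% or above in at least one test.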
TcHisRS: 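Enzyme assay of histidyl-tRNA synthetase; the read-out is not stated. Target: Histidine-tRNA ligase, Trypanosoma cruzi CL Brener (UniProt Q4DA54). Concentration: 30 µM. Higher reads as stronger inhibition (inferred: compounds with an IC50 in retests scored well above the rest). Size under these conditions: about 69,000 compounds, about 31 of them at 50% or above in at least one test.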

Each number is a percent effect as filed.
The controls that fix the scale are not given in the record; negative values are as filed.
Compounds were drawn at random from those tested, without regard to their results.

{"compound": "CCN(Cc1cnn(C)c1)C[C@H]1CC[C@@H](Cc2ccc(CO)cc2)O1", "CoaBC": -10.71, "MtTrpRS": -2.58, "ClpP1P2": -4.913, "LiHisRS": -2.083, "TcHisRS": -2.762}
{"compound": "COCCCN(Cc1ccncc1)C(=O)CSc1ccc(F)cc1", "CoaBC": -5.556, "MtTrpRS": -10.55, "ClpP1P2": -4.989, "LiHisRS": 11.11, "TcHisRS": 1.935}
{"compound": "Cc1cccc(C(=O)N2CCCC(c3nccn3Cc3cscn3)C2)n1", "stereo": "stereo not drawn", "CoaBC": 1.809, "MtTrpRS": -2.681, "ClpP1P2": -16.09, "LiHisRS": 12, "TcHisRS": -2.513}
{"compound": "Cc1ccc(C(=O)NS(C)(=O)=O)cc1S(C)(=O)=O", "CoaBC": 5.4, "MtTrpRS": 1.679, "ClpP1P2": -2.499, "LiHisRS": 5.714, "TcHisRS": 4.082}
{"compound": "Cc1ccccc1OCCN1CCN(Cc2cnn(CCO)c2)CC1", "CoaBC": -2.615, "MtTrpRS": 8.612, "ClpP1P2": -25.81, "LiHisRS": 7.339, "TcHisRS": 0.2915}
{"compound": "Cc1cnc(CN2CCCC(c3cc(C)[nH]n3)C2)cn1", "stereo": "stereo not drawn", "CoaBC": 1.044, "MtTrpRS": 11.03, "ClpP1P2": -7.773, "LiHisRS": 10.34, "TcHisRS": 2.825}
{"compound": "CCC1CN(C(=O)NCCOc2ccc3c(c2)OCO3)CCO1", "stereo": "stereo not drawn", "CoaBC": 4.48, "MtTrpRS": 6.97, "ClpP1P2": 4.15, "LiHisRS": 9.375, "TcHisRS": 2.662}
{"compound": "O=C(NCc1ccccc1)[C@H]1C[C@@H]2CN(C(=O)NC3CCCC3)C[C@H]1O2", "CoaBC": -11.76, "MtTrpRS": -0.1744, "ClpP1P2": 5.406, "LiHisRS": 10.91, "TcHisRS": 7.438}
{"compound": "O=C(NCC1CCN(c2ncccn2)CC1)c1cnccn1", "CoaBC": 1.527, "MtTrpRS": 1.242, "ClpP1P2": 1.402, "LiHisRS": 23.08, "TcHisRS": 2.41}
{"compound": "CC(=O)N1CCN([C@@H]2CC[C@@H](NC(=O)c3cncc(C)c3)[C@H]2O)CC1", "CoaBC": 17.22, "MtTrpRS": -2.759, "ClpP1P2": -0.2088, "LiHisRS": -5.556, "TcHisRS": 2.703}
{"compound": "COc1cc(CNCc2ccco2)ccc1OCCO", "CoaBC": 2.046, "MtTrpRS": -2.992, "ClpP1P2": -9.361, "LiHisRS": 4.918, "TcHisRS": 2.02}
{"compound": "CNC(=O)CN1CCOC(c2ccccc2C(F)(F)F)C1", "stereo": "stereo not drawn", "CoaBC": 3.34, "MtTrpRS": 3.631, "ClpP1P2": -2.824, "LiHisRS": 11.4, "TcHisRS": 10.34}
{"compound": "CCOc1ccccc1NC(=O)NCCc1ccoc1", "CoaBC": 0, "MtTrpRS": 1.854, "ClpP1P2": -16.35, "LiHisRS": 20.78, "TcHisRS": 1.212}
{"compound": "O=S(=O)(C1CC1)N1CCO[C@H]2[C@@H](Oc3cccnc3)CC[C@@H]21", "CoaBC": 0.1233, "MtTrpRS": 1.952, "ClpP1P2": -12.07, "LiHisRS": -20.97, "TcHisRS": 7.895}
{"compound": "C[C@@H](N)C(=O)N1CC2(CCNCC2)c2cc(Cl)ccc21", "CoaBC": 5.176, "MtTrpRS": -0.8292, "ClpP1P2": -1.336, "LiHisRS": 0.9174, "TcHisRS": 0.4808}
{"compound": "CC(C)COc1cncc(NCc2nnc3ccccn23)n1", "CoaBC": 1.927, "MtTrpRS": -2.632, "ClpP1P2": 4.49, "LiHisRS": 20, "TcHisRS": 13.64}
{"compound": "CCN(Cc1ccc2c(c1)OCO2)Cc1nc2c(cnn2C)c(=O)[nH]1", "CoaBC": 2.872, "MtTrpRS": 1.254, "ClpP1P2": -1.186, "LiHisRS": 6.195, "TcHisRS": 5.539}
{"compound": "CC(C)NC(=O)c1csc(NC2CC2)n1", "CoaBC": -0.5063, "MtTrpRS": -2.113, "ClpP1P2": -17.22, "LiHisRS": 15.79, "TcHisRS": 8.537}
{"compound": "Cc1nc(C)n(CC2CCCN2CC(=O)NCCc2ccsc2)n1", "stereo": "stereo not drawn", "CoaBC": -1.646, "MtTrpRS": -5.031, "ClpP1P2": -3.163, "LiHisRS": 10.84, "TcHisRS": 8.537}
{"compound": "Cc1ccc([C@@H]2CN(S(=O)(=O)C(C)C)C[C@H]2N(C)C)cc1", "CoaBC": 7.489, "MtTrpRS": 0.8382, "ClpP1P2": -1.403, "LiHisRS": 16.98, "TcHisRS": 0}
{"compound": "O=C(N[C@H]1CN(C2CCOCC2)C[C@@H]1C1CC1)c1cc(O)no1", "CoaBC": 6.291, "MtTrpRS": 4.311, "ClpP1P2": 0.5575, "LiHisRS": 6.25, "TcHisRS": 1.064}
{"compound": "O=C1CCN(C(=O)c2ncoc2-c2ccco2)c2ncccc2N1", "CoaBC": 1.378, "MtTrpRS": 3.291, "ClpP1P2": -1.519, "LiHisRS": 16.33, "TcHisRS": 5.128}
{"compound": "CC(C)Oc1cccc(-c2nc3c([nH]2)CCCNC3=O)c1", "CoaBC": -1.01, "MtTrpRS": -1.29, "ClpP1P2": 8.233, "LiHisRS": 13.83, "TcHisRS": -268.7}
{"compound": "CN1C[C@@H](O)[C@]2(CCN(C(=O)OCc3ccccc3)C2)S1(=O)=O", "CoaBC": 0.6135, "ClpP1P2": -7.753, "LiHisRS": 0, "TcHisRS": 0}
{"compound": "OC1CCN(C2CCN(Cc3cnc(-c4cccs4)nc3)CC2)CC1", "CoaBC": 2.805, "MtTrpRS": 1.589, "ClpP1P2": -8.594, "LiHisRS": 26.37, "TcHisRS": 13.86}
{"compound": "Cn1cnc2c1CCN(Cc1cccc(C(=O)N3CCCCC3)c1)C2", "CoaBC": 4.092, "MtTrpRS": -0.624, "ClpP1P2": -18.76, "LiHisRS": 16.51, "TcHisRS": 4.706}
{"compound": "CNC(=O)c1ccc(CNC(=O)c2ccc(Cl)cc2F)cc1", "CoaBC": 9.053, "MtTrpRS": 5.441, "ClpP1P2": -4.441, "LiHisRS": 15.09, "TcHisRS": 6.667}

The first 3 entries again:

{"compound": "CCN(Cc1cnn(C)c1)C[C@H]1CC[C@@H](Cc2ccc(CO)cc2)O1", "CoaBC": -10.71, "MtTrpRS": -2.58, "ClpP1P2": -4.913, "LiHisRS": -2.083, "TcHisRS": -2.762}
{"compound": "COCCCN(Cc1ccncc1)C(=O)CSc1ccc(F)cc1", "CoaBC": -5.556, "MtTrpRS": -10.55, "ClpP1P2": -4.989, "LiHisRS": 11.11, "TcHisRS": 1.935}
{"compound": "Cc1cccc(C(=O)N2CCCC(c3nccn3Cc3cscn3)C2)n1", "stereo": "stereo not drawn", "CoaBC": 1.809, "MtTrpRS": -2.681, "ClpP1P2": -16.09, "LiHisRS": 12, "TcHisRS": -2.513}

Measurements from “University of Dundee, Small-Polar-MMV Screening Library” (2021), ChEMBL document CHEMBL3988442.